Measured values as given in patent US7232690B1, “Method and device for detecting and isolating pharmacological compounds being contained in substance mixtures” (LTS Lohmann Therapie-Systeme AG, priority 1999, dated 2007).
At least one structure is not confirmed: it was looked up by name or label, or the drawing left a doubt.

Molecular target: serine protease thrombin (Homo sapiens, UniProt P00734)
Assay: Ultrafiltration target-binding test of substance library with thrombin, HPLC of filtrates (Example 1)
Conditions: 10 μmol/l each substance, 5 μmol/l thrombin, 1 hour room temperature
Protocol: As a target, the serine protease thrombin was chosen.
The examined assays were of the following composition:
Incubation of the substance library and the inhibitor with thrombin took place at room temperature within 1 hour; solvent: 0.9% of NaCl in H2O. The separation of the protein-ligand complexes formed was accomplished by ultrafiltration (centrifugal). All filtration procedures and washes were carried out until dryness of the filters.
Filter: Microcon 10 (Amicon)
Centrifugation conditions: 9981×g, room temperature
Washing steps: 2×, each with 150 μl of 0.9% NaCl in H2O, 4° C.
Ultrafiltration and analysis of the filtrate were followed by washing steps and the liberation of the ligand (the active chemical substance) from the protein-ligand complex retained on the filter by treatment with 200 μl of water/methanol/TFA (49.5/49.5/1) at room temperature.
The blind sample (without thrombin) was treated analogously in all steps so that a comparison of the filtrates was possible. The filtrates obtained in all steps were dried by means of a speed-VAC concentrator, and later dissolved in the corresponding HPLC flow agent of defined amount applying ultrasound and agitation.
Identification of the ligands was accomplished by analytic HPLC: stationary phase Hypersil C 18 BDS, 3 μm, 150*0.3 mm, Fusica (LC Packings)—mobile phase: acetonitrile/water/TFA (35/65/0.01), isocratic, 5 μL/min, λ=[…]. […]

## COc1cc(C)c(S(=O)(=O)N[C@@H](CC(=O)O)C(=O)N[C@H](Cc2ccc(C(=N)N)cc2)C(=O)N2CCCCC2)c(C)c1C [CRC 220]
  Binding to target thrombin (difference between main experiment and blind sample): active chemical compound
